# In PubChem BioAssay AID662 (National Center for Advancing Translational Sciences (NCATS), 2007):
# The list shows a part of the results. Shown are side measurements of this screen, not its main read-out; they come without a call. The list favours compounds with an active or inconclusive main result. Words in brackets tell the shape of the fitted curve; partial curves, single points and poor fits give uncertain potencies.
# Test: Cell signaling CRE-BLA (Fsk stim)
# Conditions: CHO CRE-bla reporter (cAMP response element driving beta-lactamase), forskolin EC10, beta-lactamase ratio; measured here: 460 nm blue channel
# Method in brief: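 Reporter-gene assay: CHO cells with beta-lactamase behind cAMP responsive elements, co-treated with compound and EC10 NKH 477 for 3 hours at 37 degrees Celsius. Activity came from the 460/530 nm CCF4 emission ratio.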
row,SMILES,AC50
1,CCn1ncc(Cl)c1C(=O)Nc1cc(Cl)ccc1Cl,"15.8 µM [rising, single point]"
2,CO[C@@H]1CC[C@@]2(C)[C@@H](CC[C@@]3(C)[C@H]2CC=C2[C@H]4CC(C)(C)[C@H](O)[C@@H](OC(C)=O)[C@]4(CO)[C@H](O)C[C@]23C)[C@@]1(C)CO (tested in a mixture with another compound),"12.6 µM [falling, single point]"
3,Cc1ccc(-c2nnc3sc(CCc4ccccc4)nn23)cc1,"10 µM [rising, single point]"
4,CCCCCCn1c(CN2CCCCC2CC)nc2c1c(=O)n(C)c(=O)n2C (configuration not stated),"7.94 µM [rising, partial curve]"
5,COC(=O)Cn1cnc2sc(C)c(S(=O)(=O)N3CCN(c4ccccc4OC)CC3)c2c1=O,"0.316 µM [rising, full curve, poor fit]"
6,Cc1cc2cc3c(cc2nc1SCC(=O)N1CCN(C(=O)c2ccco2)CC1)OCO3,"25.1 µM [rising, single point]"
7,Cc1csc(NC(=O)C2CCCO2)n1 (configuration not stated),"0.00631 µM [falling, full curve]"
8,COc1ccc(-c2nc3cnc(Nc4cccc(OC)c4)nc3n(Cc3cccs3)c2=O)cc1,"1 µM [rising, full curve]"
9,CNC(=O)N(C1=NCC(C)(C)S1)c1ccc(F)c(Cl)c1,"1 µM [rising, partial curve]"
10,Cc1nn(-c2ccccc2)c2c1C1(C(=O)N(C)c3ccccc31)N(c1ccccc1)C(=O)N2 (configuration not stated),"15.8 µM [falling, partial curve]"
11,c1ccc2c(c1)nnn1c3ccccc3nc21,"12.6 µM [rising, partial curve]"
12,CCOc1cc(S(=O)(=O)N(CC)CC)ccc1Br,"6.31 µM [rising, partial curve]"
13,COc1ccc(OC)c(C2=NOC(C(=O)Nc3cc(C)nn3-c3ccccc3)C2)c1 (configuration not stated),"5.01 µM [rising, partial curve]"
14,Cc1cccc(-c2nsc(SCC(=O)N3CCCC3)n2)c1,"0.316 µM [falling, partial curve, poor fit]"
15,Cc1nc(SCN2C(=O)c3ccccc3C2=O)n[nH]1,"1 µM [falling, partial curve]"
16,Clc1ccccc1-c1nccc(NCc2cccs2)n1,"3.16 µM [rising, single point]"
17,Fc1cccc(CSc2ncnc3c2ncn3[C@H]2CCCS2)c1,"3.98 µM [rising, single point]"
18,CCOc1ccc2nc(NC(=O)C(CC)Sc3nc(C)cc(=O)[nH]3)sc2c1 (configuration not stated),"15.8 µM [rising, single point]"
19,Cn1c(=O)cc(OCCCC(=O)N2CCN(Cc3ccc4c(c3)OCO4)CC2)c2ccccc21,"12.6 µM [rising, single point]"
20,Cn1c(=O)c(-c2cccs2)nc2cnc(N3CCNCC3)nc21,"10 µM [rising, partial curve]"
21,CC1=C(C(=O)Nc2ccccc2)C(c2cccs2)C(C#N)=C(SCC#N)N1 (configuration not stated),"20 µM [falling, partial curve]"

# In the list so far, two have fluorine.
row,SMILES,AC50
9,CNC(=O)N(C1=NCC(C)(C)S1)c1ccc(F)c(Cl)c1,"1 µM [rising, partial curve]"
17,Fc1cccc(CSc2ncnc3c2ncn3[C@H]2CCCS2)c1,"3.98 µM [rising, single point]"

# Next records:

row,SMILES,AC50
1,CCOc1cc2c3c(c1)C1(C(=O)N3C(C)(C)C=C2C)C(C#N)=C(N)Oc2cc(O)ccc21 (configuration not stated),"25.1 µM [rising, single point]"
2,Cc1cc(=O)c2ccccc2[nH]1,"0.126 µM [falling, full curve, poor fit]"
3,Oc1cc2c(cc1O)[C@H](c1ccccc1)CNCC2,"25.1 µM [falling, partial curve]"
4,COCCNc1nc(-n2nc(C)cc2C)nc2sc3c(c12)CCCC3,"7.94 µM [rising, partial curve]"
5,COc1cc(-c2noc(CCC(N)=O)n2)cc(OC)c1OC,"3.16 µM [rising, partial curve]"
6,N#CCCCSc1nnc(CSc2nc3ccccc3s2)n1-c1ccccc1,"3.98 µM [falling, partial curve]"
7,COc1ccc2[nH]c(=O)c(CN(Cc3ccc(C)cc3)Cc3nnnn3CC3CCCO3)cc2c1 (configuration not stated),"3.98 µM [falling, single point]"
8,COc1cccc(N(C(=O)c2cccs2)c2nc3ccccc3s2)c1,"0.398 µM [rising, full curve]"
9,CCOC(=O)C(NC(C)=O)(NS(=O)(=O)c1ccccc1)C(F)(F)F (configuration not stated),"0.0501 µM [falling, partial curve, poor fit]"
10,CC(C)(C)c1cc(CN2CCCC(O)C2)c(O)c(C(C)(C)C)c1 (configuration not stated),"5.01 µM [falling, single point]"
11,CCCc1cc(C(=O)N2CCN(c3ccccc3C)CC2)cs1,"25.1 µM [falling, single point]"
12,COC(=O)C(C)Sc1nc2c(c(=O)[nH]c(=O)n2C)n1CCCc1ccccc1 (configuration not stated),"15.8 µM [rising, partial curve]"
13,COc1nc(-c2ccc(C)cc2)ccc1-c1noc(-c2ccco2)n1,"10 µM [rising, single point]"
14,CCOC(=O)C1=C(C)Nc2ccccc2N=C1NC(=O)c1cccc(S(=O)(=O)N(C)C)c1,"15.8 µM [rising, single point]"
15,Cc1cc(-n2[nH]c(C)c(C)c2=O)nc(-c2ccccc2O)n1,"7.94 µM [falling, partial curve]"
16,CCOC(=O)c1ccccc1NC(=O)c1ccc(Cl)c(S(=O)(=O)N2CCOCC2)c1,"5.01 µM [rising, partial curve]"
17,Cc1ccc(-c2nn3c(C)nnc3s2)cc1NC(=O)c1ccc(-c2ccc(Cl)cc2Cl)o1,"3.98 µM [rising, full curve, poor fit]"
18,COc1ccc(NCc2n[nH]nc2-c2ccccc2)cc1Cl,"25.1 µM [falling, single point]"
19,O=C(Nc1nccs1)c1ccc(Cl)c(S(=O)(=O)N2CCCCC2)c1,"5.01 µM [rising, single point]"
20,C=CC(=C)CC(NC)c1ccccc1 (configuration not stated),"0.794 µM [rising, full curve, poor fit]"
21,COc1cccc(Cn2c(=O)cnc3cnc(Nc4ccccc4)nc32)c1,"15.8 µM [rising, partial curve]"
